# Data as given in the supplement of paper PMC6411743.
# Sequences of proteins named here, by UniProt entry; tags and fusion partners are left off. A change or cut given only in a name is not applied to a line headed by its entry.
# UniProt Q9NZN8, whole entry: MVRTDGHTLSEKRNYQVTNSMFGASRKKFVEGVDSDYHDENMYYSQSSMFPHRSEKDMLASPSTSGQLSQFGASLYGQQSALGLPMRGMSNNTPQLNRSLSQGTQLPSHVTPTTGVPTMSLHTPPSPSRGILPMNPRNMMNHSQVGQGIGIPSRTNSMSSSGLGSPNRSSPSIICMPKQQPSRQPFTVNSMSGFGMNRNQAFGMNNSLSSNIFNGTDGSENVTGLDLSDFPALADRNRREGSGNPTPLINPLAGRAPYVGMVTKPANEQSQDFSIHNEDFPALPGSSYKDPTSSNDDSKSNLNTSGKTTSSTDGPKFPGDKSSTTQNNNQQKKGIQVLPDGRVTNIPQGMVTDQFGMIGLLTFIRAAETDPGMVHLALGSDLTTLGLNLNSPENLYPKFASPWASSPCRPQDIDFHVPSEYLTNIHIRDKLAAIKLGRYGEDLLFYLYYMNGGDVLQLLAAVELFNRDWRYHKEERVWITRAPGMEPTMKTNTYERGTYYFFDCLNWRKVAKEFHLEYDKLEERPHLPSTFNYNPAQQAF
# UniProt Q9H0K6: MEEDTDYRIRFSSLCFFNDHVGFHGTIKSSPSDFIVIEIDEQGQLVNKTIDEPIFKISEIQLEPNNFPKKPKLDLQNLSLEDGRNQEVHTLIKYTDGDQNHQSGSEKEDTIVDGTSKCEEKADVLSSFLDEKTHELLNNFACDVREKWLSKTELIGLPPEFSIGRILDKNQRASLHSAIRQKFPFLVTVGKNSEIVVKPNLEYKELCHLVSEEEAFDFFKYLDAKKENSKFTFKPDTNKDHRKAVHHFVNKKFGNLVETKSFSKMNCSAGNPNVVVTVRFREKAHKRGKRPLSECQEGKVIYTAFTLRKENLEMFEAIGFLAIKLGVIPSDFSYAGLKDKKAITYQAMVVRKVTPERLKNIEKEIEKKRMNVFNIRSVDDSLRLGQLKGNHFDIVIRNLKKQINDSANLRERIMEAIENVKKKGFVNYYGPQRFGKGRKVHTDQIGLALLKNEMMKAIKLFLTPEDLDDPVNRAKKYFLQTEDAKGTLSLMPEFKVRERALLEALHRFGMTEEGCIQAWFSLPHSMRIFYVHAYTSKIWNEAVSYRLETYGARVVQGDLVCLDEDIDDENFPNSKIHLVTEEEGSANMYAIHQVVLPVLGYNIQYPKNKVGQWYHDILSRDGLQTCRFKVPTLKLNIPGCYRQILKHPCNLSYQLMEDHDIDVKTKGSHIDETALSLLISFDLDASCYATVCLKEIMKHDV
# UniProt P50579: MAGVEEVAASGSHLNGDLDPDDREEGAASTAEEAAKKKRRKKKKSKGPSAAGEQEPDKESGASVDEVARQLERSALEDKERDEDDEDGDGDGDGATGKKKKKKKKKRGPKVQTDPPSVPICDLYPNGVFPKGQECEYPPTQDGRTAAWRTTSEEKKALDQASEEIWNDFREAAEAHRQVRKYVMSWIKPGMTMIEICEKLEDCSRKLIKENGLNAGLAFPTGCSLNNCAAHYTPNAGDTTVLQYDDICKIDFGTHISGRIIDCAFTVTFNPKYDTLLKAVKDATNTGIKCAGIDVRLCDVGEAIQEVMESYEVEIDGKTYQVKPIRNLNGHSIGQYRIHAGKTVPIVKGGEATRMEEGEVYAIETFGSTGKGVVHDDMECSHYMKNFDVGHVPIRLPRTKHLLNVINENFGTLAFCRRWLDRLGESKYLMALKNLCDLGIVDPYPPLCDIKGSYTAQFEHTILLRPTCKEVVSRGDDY
# UniProt P29558: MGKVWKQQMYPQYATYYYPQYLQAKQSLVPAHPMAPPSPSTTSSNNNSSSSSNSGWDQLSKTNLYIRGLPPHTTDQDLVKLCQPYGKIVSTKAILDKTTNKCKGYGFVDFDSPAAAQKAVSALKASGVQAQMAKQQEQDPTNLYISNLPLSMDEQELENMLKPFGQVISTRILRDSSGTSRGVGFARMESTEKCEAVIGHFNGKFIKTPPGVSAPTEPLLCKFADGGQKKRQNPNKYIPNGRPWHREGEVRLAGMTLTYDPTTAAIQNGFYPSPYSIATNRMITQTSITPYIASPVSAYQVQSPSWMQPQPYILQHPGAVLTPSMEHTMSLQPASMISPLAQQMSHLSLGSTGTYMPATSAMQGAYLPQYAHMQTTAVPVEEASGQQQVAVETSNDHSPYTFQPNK
# UniProt P08962, whole entry: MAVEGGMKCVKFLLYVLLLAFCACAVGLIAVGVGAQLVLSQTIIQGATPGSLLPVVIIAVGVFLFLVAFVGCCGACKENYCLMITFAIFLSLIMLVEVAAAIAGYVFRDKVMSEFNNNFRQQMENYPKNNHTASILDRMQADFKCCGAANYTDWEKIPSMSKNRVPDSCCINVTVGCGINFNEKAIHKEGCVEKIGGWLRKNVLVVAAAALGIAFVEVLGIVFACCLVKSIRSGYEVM
# UniProt Q5H9R7: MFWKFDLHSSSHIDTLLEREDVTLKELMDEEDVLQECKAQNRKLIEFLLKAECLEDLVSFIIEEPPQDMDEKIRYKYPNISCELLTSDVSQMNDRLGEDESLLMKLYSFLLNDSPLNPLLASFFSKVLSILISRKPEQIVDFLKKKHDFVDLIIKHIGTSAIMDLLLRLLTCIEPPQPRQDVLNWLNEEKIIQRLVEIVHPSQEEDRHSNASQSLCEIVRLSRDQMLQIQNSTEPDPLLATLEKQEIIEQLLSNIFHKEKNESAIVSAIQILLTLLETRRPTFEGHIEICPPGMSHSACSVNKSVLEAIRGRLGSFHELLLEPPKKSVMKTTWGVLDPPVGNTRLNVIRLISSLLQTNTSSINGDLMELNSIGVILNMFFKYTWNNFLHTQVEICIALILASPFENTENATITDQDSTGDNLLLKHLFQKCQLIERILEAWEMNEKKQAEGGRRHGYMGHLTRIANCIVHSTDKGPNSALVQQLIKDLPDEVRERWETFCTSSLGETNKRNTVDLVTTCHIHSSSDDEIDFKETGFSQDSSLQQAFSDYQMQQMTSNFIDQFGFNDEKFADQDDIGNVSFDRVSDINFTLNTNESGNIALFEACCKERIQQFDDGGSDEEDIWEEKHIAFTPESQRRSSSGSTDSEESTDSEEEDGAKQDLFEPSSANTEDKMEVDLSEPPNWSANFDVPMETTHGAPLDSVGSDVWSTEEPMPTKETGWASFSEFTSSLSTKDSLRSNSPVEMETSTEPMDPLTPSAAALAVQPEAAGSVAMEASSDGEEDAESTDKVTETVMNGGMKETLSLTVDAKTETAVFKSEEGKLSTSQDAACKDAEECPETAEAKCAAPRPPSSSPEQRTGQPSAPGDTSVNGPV
# UniProt Q8N128: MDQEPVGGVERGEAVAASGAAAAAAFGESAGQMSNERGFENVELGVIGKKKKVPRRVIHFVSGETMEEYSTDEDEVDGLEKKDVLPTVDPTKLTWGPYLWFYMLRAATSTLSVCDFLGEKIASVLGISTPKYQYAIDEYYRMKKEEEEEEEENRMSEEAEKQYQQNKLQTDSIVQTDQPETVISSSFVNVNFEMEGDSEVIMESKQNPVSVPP
# UniProt Q71RG4: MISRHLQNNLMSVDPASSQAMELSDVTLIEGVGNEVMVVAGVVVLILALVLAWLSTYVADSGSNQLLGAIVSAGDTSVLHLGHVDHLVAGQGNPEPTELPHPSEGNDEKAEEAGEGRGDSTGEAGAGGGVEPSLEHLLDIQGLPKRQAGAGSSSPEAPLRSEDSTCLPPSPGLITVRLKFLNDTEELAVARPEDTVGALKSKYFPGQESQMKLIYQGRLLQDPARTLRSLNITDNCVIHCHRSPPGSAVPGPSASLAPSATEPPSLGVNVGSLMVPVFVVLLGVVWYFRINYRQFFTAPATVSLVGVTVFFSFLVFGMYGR
# UniProt Q8TAV0: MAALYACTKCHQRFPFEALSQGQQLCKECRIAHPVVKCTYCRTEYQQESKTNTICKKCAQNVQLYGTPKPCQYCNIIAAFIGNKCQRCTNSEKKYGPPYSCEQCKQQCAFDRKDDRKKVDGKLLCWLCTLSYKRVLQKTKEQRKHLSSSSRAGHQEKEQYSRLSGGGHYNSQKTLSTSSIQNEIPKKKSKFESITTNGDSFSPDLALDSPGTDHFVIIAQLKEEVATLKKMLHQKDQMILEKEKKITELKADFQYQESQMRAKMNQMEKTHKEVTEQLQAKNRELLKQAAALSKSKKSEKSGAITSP
# UniProt Q13144, whole entry: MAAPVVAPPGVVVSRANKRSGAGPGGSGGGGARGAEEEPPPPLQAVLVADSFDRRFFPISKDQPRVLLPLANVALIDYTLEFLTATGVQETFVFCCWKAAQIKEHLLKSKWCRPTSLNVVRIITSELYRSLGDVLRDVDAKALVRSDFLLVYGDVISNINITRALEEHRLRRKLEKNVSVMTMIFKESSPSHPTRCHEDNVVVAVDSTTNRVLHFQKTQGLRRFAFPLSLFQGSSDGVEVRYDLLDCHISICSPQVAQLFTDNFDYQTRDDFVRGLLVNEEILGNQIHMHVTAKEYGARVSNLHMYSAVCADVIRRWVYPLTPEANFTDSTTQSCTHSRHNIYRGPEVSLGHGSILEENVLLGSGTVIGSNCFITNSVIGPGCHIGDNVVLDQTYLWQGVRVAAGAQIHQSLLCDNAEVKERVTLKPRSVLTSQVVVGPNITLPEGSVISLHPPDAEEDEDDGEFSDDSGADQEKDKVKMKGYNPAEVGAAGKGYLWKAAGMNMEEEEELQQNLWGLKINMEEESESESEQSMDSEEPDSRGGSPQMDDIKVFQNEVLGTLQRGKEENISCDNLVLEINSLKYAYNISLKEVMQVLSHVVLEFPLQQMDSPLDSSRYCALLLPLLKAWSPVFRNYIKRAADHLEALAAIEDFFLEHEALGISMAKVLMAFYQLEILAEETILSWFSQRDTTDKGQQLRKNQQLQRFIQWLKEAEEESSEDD
# UniProt Q9H7C9: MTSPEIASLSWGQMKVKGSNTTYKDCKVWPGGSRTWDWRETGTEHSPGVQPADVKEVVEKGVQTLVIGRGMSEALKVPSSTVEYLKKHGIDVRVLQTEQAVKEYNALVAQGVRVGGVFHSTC
# UniProt Q9HBM0: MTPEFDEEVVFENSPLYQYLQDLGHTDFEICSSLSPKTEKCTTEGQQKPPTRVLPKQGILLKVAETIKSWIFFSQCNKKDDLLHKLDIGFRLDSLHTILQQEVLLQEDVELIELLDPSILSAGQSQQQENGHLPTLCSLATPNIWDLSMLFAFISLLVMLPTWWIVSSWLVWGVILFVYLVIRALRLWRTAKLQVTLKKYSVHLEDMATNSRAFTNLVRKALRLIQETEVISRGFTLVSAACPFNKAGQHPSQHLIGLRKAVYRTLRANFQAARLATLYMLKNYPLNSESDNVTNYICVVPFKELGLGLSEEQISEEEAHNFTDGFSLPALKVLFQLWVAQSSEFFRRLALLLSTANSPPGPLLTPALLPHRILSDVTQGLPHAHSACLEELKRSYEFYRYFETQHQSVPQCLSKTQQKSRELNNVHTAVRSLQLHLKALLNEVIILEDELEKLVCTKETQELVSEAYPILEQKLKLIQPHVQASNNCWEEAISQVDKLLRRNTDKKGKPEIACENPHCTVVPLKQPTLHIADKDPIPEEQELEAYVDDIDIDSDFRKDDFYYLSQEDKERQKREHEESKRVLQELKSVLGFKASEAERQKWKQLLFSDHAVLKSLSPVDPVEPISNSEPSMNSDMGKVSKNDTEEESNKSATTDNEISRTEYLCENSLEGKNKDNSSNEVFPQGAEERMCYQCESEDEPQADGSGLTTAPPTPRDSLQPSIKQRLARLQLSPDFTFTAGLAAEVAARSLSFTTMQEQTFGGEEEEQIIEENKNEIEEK
# UniProt Q9HCU9: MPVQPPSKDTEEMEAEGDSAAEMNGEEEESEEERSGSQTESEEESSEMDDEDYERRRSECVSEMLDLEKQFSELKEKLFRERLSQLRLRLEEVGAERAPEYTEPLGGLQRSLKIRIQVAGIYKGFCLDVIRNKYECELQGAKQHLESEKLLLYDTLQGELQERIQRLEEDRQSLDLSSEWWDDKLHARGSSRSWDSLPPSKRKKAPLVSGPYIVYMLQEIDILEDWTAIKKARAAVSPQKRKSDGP
# UniProt Q96MG8: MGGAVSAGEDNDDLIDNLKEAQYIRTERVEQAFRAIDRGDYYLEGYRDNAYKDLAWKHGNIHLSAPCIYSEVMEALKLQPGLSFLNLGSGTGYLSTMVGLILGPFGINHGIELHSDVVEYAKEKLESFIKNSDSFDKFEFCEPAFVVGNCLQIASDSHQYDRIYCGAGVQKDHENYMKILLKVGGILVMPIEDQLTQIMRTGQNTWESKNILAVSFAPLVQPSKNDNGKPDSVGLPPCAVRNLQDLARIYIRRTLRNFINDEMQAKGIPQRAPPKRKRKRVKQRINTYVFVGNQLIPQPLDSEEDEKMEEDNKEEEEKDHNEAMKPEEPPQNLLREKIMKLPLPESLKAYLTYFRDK
# ± gives the standard deviation of the averaged measurements. Some of the results follow.
# Compound: Nc1nc2c(ncn2[C@@H]2O[C@H](COP(=O)(O)OP(=O)(O)OP(=O)(O)O)[C@@H](O)[C@H]2O)c(=O)[nH]1 [guanosine triphosphate]
# Test: NP40-soluble protein abundance relative to vehicle (solubility fold change) (ratio); higher = more soluble protein in presence of GTP
# Outline: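 Data come from three independent experiments in which Dounce-homogenised Jurkat crude lysate was treated at eight concentrations from 0.1 to 10 mM. Treatment ran 10 min at room temperature and then 3 min at 37 °C, after which 0.8% NP40 and benzonase were added for 60 min at 4 °C before ultracentrifugation. The supernatant underwent TMT labelling and LC-MS/MS, and vsn-normalised intensities were expressed as fold change against the detergent-processed vehicle in each replicate.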
Target,NP40-soluble protein abundance (concentration: 0.1mM),NP40-soluble protein abundance (concentration: 0.5mM),NP40-soluble protein abundance (concentration: 1mM),NP40-soluble protein abundance (concentration: 2mM),NP40-soluble protein abundance (concentration: 4mM),NP40-soluble protein abundance (concentration: 6mM),NP40-soluble protein abundance (concentration: 8mM),NP40-soluble protein abundance (concentration: 10mM)
E7EW05 and related entries (UniProt Q9NVU7),1.07 ± 0.046,1.01 ± 0.055,1.04 ± 0.053,1.08 ± 0.023,1.12 ± 0.048,1.11 ± 0.03,1.23 ± 0.044,1.19 ± 0.066
F8VV52 and related entries (UniProt Q9NZN8),1.04 ± 0.015,1.02 ± 0.045,1.16 ± 0.073,1.21 ± 0.047,1.31 ± 0.08,1.4 ± 0.14,1.43 ± 0.18,1.52 ± 0.22
F5H039 and related entries (UniProt Q9NQX3),0.979 ± 0.053,0.991 ± 0.023,0.987 ± 0.042,0.982 ± 0.046,0.981 ± 0.033,0.991 ± 0.034,1 ± 0.057,0.978 ± 0.065
G5E977 and related entries (UniProt Q6XQN6),0.955 ± 0.029,0.962 ± 0.15,0.944 ± 0.033,0.952 ± 0.067,0.944 ± 0.013,0.841 ± 0.12,0.839 ± 0.016,0.803 ± 0.088
E9PC47 and related entries (UniProt P53667),0.901 ± 0.095,1.11 ± 0.15,1.1 ± 0.21,0.923 ± 0.03,1.06 ± 0.15,1.04 ± 0.11,1.01 ± 0.093,0.929 ± 0.055
F8VZA0 and related entries (UniProt Q9H0K6),1.03 ± 0.023,1.02 ± 0.015,0.9856 ± 0.0081,0.985 ± 0.035,0.944 ± 0.074,1 ± 0.037,0.991 ± 0.071,0.9677 ± 0.0093
F8VQZ7 and related entries (UniProt P50579),1.1 ± 0.013,1.05 ± 0.03,1 ± 0.022,0.988 ± 0.055,1.04 ± 0.037,1.01 ± 0.011,1.04 ± 0.099,0.97 ± 0.046
F8WCU9 and related entries (UniProt Q68CP9),1.03 ± 0.015,1.09 ± 0.024,1.15 ± 0.056,1.25 ± 0.12,1.34 ± 0.15,1.4 ± 0.18,1.46 ± 0.24,1.45 ± 0.23
E7ETU5 and related entries (UniProt P29558),0.915 ± 0.077,0.945 ± 0.017,0.982 ± 0.057,0.956 ± 0.087,0.927 ± 0.041,0.943 ± 0.088,0.952 ± 0.02,0.958 ± 0.06
G3XAC1 and related entries (UniProt Q9BXS9),0.857 ± 0.063,0.854 ± 0.073,0.9 ± 0.045,0.911 ± 0.056,0.87 ± 0.037,0.877 ± 0.036,0.857 ± 0.015,0.917 ± 0.042
F8VV56 and related entries (UniProt P08962),0.872 ± 0.022,0.82 ± 0.085,0.943 ± 0.039,0.909 ± 0.085,0.929 ± 0.071,0.875 ± 0.089,0.861 ± 0.1,0.924 ± 0.063
F8WAZ6 and related entries (UniProt O75439),0.962 ± 0.048,0.964 ± 0.022,0.926 ± 0.03,0.908 ± 0.023,0.898 ± 0.013,0.889 ± 0.0093,0.884 ± 0.046,0.866 ± 0.044
F5H6I6 and related entries (UniProt Q86VP6),0.978 ± 0.027,0.983 ± 0.045,0.926 ± 0.035,0.932 ± 0.067,0.934 ± 0.038,0.931 ± 0.049,0.902 ± 0.021,0.905 ± 0.025
E9PLY5 and related entries (UniProt Q9UPN3+H3BQK9+H3BPE1+E9PLY5),1 ± 0.058,0.997 ± 0.062,1.02 ± 0.063,1 ± 0.069,1.01 ± 0.052,1.01 ± 0.049,1.03 ± 0.067,1.02 ± 0.073
E9PKF6 and related entries (UniProt Q5H9R7),0.948 ± 0.042,0.949 ± 0.046,0.96 ± 0.048,0.912 ± 0.051,0.908 ± 0.04,0.927 ± 0.056,0.933 ± 0.031,0.919 ± 0.055
G3V583 and related entries (UniProt Q8N128),0.912 ± 0.089,0.928 ± 0.084,0.869 ± 0.13,0.94 ± 0.16,0.887 ± 0.16,0.861 ± 0.14,0.87 ± 0.1,0.902 ± 0.14
E7ESS3 and related entries (UniProt Q71RG4),0.947 ± 0.14,0.972 ± 0.18,1.03 ± 0.17,1.02 ± 0.21,1.05 ± 0.2,1 ± 0.27,0.948 ± 0.059,0.894 ± 0.091
E9PQL1 and related entries (UniProt Q8TAV0),0.987 ± 0.025,1.02 ± 0.035,1.1 ± 0.096,1.1 ± 0.1,1.05 ± 0.12,1.05 ± 0.14,1.06 ± 0.14,1.09 ± 0.098
E9PK57 and related entries (UniProt O94830),1.03 ± 0.047,1.09 ± 0.081,1.01 ± 0.018,1.04 ± 0.025,1 ± 0.055,0.9946 ± 0.0036,0.987 ± 0.026,0.984 ± 0.057
F1T0I1 and related entries (UniProt O15027),0.995 ± 0.023,1.05 ± 0.018,1.12 ± 0.02,1.15 ± 0.028,1.16 ± 0.04,1.14 ± 0.029,1.21 ± 0.096,1.2 ± 0.094
E9PC74 and related entries (UniProt Q13144),1.06 ± 0.086,1.11 ± 0.075,1.05 ± 0.043,1.09 ± 0.1,1.07 ± 0.099,1.1 ± 0.059,1.06 ± 0.068,1.03 ± 0.078
F5GZ90 and related entries (UniProt Q9NZJ0),1.06 ± 0.047,1.06 ± 0.1,0.981 ± 0.093,1 ± 0.11,1.01 ± 0.081,0.991 ± 0.11,0.981 ± 0.053,0.958 ± 0.086
E9PNP3 and related entries (UniProt Q9H7C9),0.931 ± 0.12,0.861 ± 0.042,1 ± 0.14,0.939 ± 0.057,0.953 ± 0.1,0.953 ± 0.083,0.914 ± 0.12,0.956 ± 0.063
F8W8C2 and related entries (UniProt Q9HBM0),0.869 ± 0.14,0.967 ± 0.095,0.948 ± 0.11,0.972 ± 0.014,0.975 ± 0.082,0.92 ± 0.17,0.954 ± 0.018,0.889 ± 0.049
E9PJF5 and related entries (UniProt Q9HCU9),1.06 ± 0.11,1.07 ± 0.059,1.16 ± 0.12,1.24 ± 0.1,1.32 ± 0.17,1.27 ± 0.11,1.22 ± 0.13,1.3 ± 0.18
F5H1M8 and related entries (UniProt Q96MG8),0.938 ± 0.035,0.906 ± 0.027,0.951 ± 0.029,0.867 ± 0.017,0.844 ± 0.01,0.902 ± 0.0096,0.831 ± 0.028,0.812 ± 0.084

# Record cards, as listed above.
# F8VV52 and related entries (UniProt Q9NZN8) reads NP40-soluble protein abundance (concentration: 0.1mM): 1.04 ± 0.015; NP40-soluble protein abundance (concentration: 0.5mM): 1.02 ± 0.045; NP40-soluble protein abundance (concentration: 1mM): 1.16 ± 0.073; NP40-soluble protein abundance (concentration: 2mM): 1.21 ± 0.047; NP40-soluble protein abundance (concentration: 4mM): 1.31 ± 0.08; NP40-soluble protein abundance (concentration: 6mM): 1.4 ± 0.14; NP40-soluble protein abundance (concentration: 8mM): 1.43 ± 0.18; NP40-soluble protein abundance (concentration: 10mM): 1.52 ± 0.22
# E9PQL1 and related entries (UniProt Q8TAV0) reads NP40-soluble protein abundance (concentration: 0.1mM): 0.987 ± 0.025; NP40-soluble protein abundance (concentration: 0.5mM): 1.02 ± 0.035; NP40-soluble protein abundance (concentration: 1mM): 1.1 ± 0.096; NP40-soluble protein abundance (concentration: 2mM): 1.1 ± 0.1; NP40-soluble protein abundance (concentration: 4mM): 1.05 ± 0.12; NP40-soluble protein abundance (concentration: 6mM): 1.05 ± 0.14; NP40-soluble protein abundance (concentration: 8mM): 1.06 ± 0.14; NP40-soluble protein abundance (concentration: 10mM): 1.09 ± 0.098
